What all share (assay): two-hybrid; MKKs in pGBKT7, MKD1 and MPKs in pGADT7, yeast strain Y190; β-galactosidase activity measured in diploids
Test [1] deals with T1, MKK1 (yeast two-hybrid fusion in pGBKT7) (Arabidopsis) (UniProt Q94A06).
T1 sequence: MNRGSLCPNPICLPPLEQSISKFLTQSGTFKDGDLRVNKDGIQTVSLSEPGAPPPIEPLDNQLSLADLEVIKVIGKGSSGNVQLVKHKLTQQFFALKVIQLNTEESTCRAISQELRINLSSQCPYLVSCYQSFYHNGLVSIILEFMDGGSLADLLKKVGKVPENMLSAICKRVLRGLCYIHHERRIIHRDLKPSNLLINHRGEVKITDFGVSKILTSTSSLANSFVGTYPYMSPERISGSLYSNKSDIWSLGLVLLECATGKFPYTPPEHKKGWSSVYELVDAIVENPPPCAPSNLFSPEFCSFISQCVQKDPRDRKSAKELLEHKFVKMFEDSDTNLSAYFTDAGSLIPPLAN

Protein sequences, listed by entry. Tags and fused reporters are not part of them.
UniProt Q39026: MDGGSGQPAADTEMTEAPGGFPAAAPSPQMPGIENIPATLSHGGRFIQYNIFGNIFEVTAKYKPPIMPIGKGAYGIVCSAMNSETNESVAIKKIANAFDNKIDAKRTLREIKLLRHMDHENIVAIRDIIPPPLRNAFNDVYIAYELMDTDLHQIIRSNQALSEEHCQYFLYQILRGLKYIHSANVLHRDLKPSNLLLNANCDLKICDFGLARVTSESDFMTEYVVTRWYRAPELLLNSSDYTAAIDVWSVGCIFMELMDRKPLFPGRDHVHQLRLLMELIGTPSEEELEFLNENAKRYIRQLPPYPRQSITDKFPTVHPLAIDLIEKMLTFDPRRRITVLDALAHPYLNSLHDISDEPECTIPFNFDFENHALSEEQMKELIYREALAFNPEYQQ

The target of test [2] is T2, MKK2 (yeast two-hybrid fusion in pGBKT7) (Arabidopsis) (UniProt Q9S7U9).
T2 sequence: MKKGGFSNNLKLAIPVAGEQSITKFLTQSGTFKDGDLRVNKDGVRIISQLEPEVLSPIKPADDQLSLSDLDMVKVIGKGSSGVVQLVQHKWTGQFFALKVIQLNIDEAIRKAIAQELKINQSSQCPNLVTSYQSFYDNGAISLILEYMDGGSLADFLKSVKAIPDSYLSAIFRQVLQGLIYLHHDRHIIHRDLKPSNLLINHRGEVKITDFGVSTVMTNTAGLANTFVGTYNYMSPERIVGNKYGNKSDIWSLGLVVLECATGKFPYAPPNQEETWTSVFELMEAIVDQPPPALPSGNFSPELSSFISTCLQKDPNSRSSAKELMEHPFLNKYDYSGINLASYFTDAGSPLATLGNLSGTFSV

For test [3], the target named is T3, MKK5 (yeast two-hybrid fusion in pGBKT7) (Arabidopsis) (UniProt Q8RXG3).
T3 sequence: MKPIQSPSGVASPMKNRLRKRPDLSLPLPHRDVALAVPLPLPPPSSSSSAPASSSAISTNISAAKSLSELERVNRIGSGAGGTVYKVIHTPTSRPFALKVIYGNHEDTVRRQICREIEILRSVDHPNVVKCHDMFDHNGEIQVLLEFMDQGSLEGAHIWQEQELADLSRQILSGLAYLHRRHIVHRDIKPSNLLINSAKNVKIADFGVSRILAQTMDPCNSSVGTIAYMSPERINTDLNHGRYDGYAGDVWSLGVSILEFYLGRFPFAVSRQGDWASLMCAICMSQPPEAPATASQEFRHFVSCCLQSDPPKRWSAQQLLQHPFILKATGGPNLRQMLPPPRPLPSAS

No constants are given. Whether binding was seen depends on the method and setting. Some results given as binding are weak or reduced against the parent protein; the word gives no strength. Tags and fused reporters may be left off the sequences shown.

On to “MPK6 (yeast two-hybrid fusion in pGADT7) (from UniProt Q39026 1-395)”, for which the figures for the binding entry in test [1], in test [2] and in test [3] were “no binding”, “binds” and “binds”, respectively.

B1: MPK3 (yeast two-hybrid fusion in pGADT7) (protein, UniProt Q39023 1-370)
chain: MNTGGGQYTDFPAVETHGGQFISYDIFGSLFEITSKYRPPIIPIGRGAYGIVCSVLDTETNELVAMKKIANAFDNHMDAKRTLREIKLLRHLDHENIIAIRDVVPPPLRRQFSDVYISTELMDTDLHQIIRSNQSLSEEHCQYFLYQLLRGLKYIHSANIIHRDLKPSNLLLNANCDLKICDFGLARPTSENDFMTEYVVTRWYRAPELLLNSSDYTAAIDVWSVGCIFMELMNRKPLFPGKDHVHQMRLLTELLGTPTESDLGFTHNEDAKRYIRQLPNFPRQPLAKLFSHVNPMAIDLVDRMLTFDPNRRITVEQALNHQYLAKLHDPNDEPICQKPFSFEFEQQPLDEEQIKEMIYQEAIALNPTYG
As for B1, the binding entry in test [1], in test [2] and in test [3] was “binds” in each case.

The values are drawn from PMC7094076.
